No constants are given. Whether binding was seen depends on the method and setting. Some entries that bind do so weakly or less than the wild type.
Biological target: Brucella abortus PdhS histidine kinase fused to the mCherry fluorescent protein (Brucella abortus) (UniProt Q2YRB4)
Assay: SEC

Amino acid sequences for entries named in this document (tags omitted).
UniProt Q2YRB4: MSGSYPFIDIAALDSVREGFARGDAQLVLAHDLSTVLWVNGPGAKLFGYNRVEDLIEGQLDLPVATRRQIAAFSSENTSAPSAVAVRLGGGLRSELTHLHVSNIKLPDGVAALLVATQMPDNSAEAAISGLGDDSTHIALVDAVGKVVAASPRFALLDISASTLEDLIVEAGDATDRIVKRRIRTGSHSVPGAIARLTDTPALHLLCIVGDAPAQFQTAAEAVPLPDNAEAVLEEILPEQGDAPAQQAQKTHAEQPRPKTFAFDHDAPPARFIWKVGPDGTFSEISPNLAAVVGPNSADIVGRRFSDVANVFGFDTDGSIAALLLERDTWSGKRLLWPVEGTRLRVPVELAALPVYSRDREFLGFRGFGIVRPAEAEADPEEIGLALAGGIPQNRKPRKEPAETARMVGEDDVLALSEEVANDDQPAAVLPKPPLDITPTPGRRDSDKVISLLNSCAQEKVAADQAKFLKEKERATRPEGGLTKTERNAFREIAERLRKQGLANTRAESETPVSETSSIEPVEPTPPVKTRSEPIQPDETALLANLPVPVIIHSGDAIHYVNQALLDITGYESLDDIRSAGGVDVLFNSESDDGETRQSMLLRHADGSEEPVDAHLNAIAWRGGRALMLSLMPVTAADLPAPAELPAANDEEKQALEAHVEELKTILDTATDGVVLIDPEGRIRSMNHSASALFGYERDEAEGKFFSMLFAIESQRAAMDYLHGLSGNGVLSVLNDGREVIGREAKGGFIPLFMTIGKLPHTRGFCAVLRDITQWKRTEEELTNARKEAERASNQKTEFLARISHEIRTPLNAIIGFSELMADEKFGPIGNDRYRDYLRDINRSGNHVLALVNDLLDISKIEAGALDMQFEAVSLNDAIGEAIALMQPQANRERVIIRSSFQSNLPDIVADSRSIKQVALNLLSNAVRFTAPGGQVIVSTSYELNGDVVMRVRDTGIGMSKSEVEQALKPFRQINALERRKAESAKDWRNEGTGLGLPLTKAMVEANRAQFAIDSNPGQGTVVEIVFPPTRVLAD

Substance: Brucella abortus PdhS histidine kinase fused to the mCherry fluorescent protein (from UniProt Q2YRB4 1-1035)
- binding: binds
